Results from US20220098328A1, “ANTIBODIES TO M(H)DM2/4 AND THEIR USE IN DIAGNOSING AND TREATING CANCER” (NomoCan Pharmaceuticals LLC, priority 2017, published 2022).
These are yes or no findings as the source states them, for the method shown. Some binding calls cover weakened binding; strength is not graded here.

Amino acid sequences for entries named in this document (tags omitted). A change or cut given only in a name is not applied to a line headed by its entry.
UniProt P23804: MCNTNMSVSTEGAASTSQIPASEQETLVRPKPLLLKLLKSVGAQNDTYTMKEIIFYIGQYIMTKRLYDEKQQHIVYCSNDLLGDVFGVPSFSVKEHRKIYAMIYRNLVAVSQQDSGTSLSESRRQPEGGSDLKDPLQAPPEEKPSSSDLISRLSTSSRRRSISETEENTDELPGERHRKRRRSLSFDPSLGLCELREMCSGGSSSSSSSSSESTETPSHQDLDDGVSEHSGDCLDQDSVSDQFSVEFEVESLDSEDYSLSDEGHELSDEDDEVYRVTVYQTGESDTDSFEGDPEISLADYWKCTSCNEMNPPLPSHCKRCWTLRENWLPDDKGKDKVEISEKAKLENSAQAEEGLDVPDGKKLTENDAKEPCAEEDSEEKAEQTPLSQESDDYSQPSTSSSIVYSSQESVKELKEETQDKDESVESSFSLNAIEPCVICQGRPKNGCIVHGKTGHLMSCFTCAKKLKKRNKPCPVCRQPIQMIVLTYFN
UniProt Q00987: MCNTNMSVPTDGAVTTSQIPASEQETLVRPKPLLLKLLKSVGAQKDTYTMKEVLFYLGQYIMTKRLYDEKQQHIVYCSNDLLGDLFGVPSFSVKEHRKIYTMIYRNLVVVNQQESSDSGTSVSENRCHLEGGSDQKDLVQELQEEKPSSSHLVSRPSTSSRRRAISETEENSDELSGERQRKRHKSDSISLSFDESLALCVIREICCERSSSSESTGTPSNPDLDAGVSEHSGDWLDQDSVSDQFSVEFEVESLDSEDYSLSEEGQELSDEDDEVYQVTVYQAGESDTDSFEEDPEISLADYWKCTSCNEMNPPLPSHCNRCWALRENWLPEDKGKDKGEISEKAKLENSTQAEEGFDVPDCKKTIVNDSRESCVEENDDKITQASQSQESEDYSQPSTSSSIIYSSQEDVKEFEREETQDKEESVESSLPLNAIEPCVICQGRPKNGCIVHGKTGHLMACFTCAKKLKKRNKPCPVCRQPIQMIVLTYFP

Tests used:
[1] = molecular target: MDM2 on the plasma membrane of intact mouse cancer cells (mouse) (UniProt P23804); assay: cell-based ELISA, LL/2
[2] = molecular target: MDM2 on the plasma membrane of intact mouse cancer cells (mouse) (UniProt P23804); assay: cell-based ELISA, LL/2, 5 µg/mL
[3] = molecular target: HDM2 on the plasma membrane of intact human cancer cells (human) (UniProt Q00987); assay: cell-based ELISA, human cancer cells
[4] = molecular target: MDM2 on the plasma membrane of intact mouse cancer cells (mouse) (UniProt P23804); assay: cell-based ELISA, murine cancer cells
[5] = molecular target: MDM2 on the plasma membrane of intact mouse cancer cells (mouse) (UniProt P23804); assay: cell-based ELISA, rodent cancer cells
[6] = molecular target: MDM2 on the plasma membrane of intact mouse cancer cells (mouse) (UniProt P23804); assay: cell-based ELISA on intact LL/2 cells
[7] = molecular target: MDM2 on the plasma membrane of intact mouse cancer cells (mouse) (UniProt P23804); assay: flow cytometry on live (7AAD negative) LL/2 cells
[8] = molecular target: MDM2 on the plasma membrane of intact mouse cancer cells (mouse) (UniProt P23804); assay: cell-based ELISA, 5 µg/mL; MC-38 and Panc-2 cells
[9] = molecular target: HDM2 on the plasma membrane of intact human cancer cells (human) (UniProt Q00987); assay: flow cytometry on live (7AAD negative) OVCAR-3 cells
[10] = molecular target: MDM2 on the plasma membrane of intact mouse cancer cells (mouse) (UniProt P23804); assay: flow cytometry on live (7AAD negative) LL/2 cells, 1 µg/ml
[11] = molecular target: HDM2 on the plasma membrane of intact human cancer cells (human) (UniProt Q00987); assay: flow cytometry on live (7AAD negative) OVCAR-3 cells, 1 µg/ml
[12] = molecular target: HDM2 on the plasma membrane of intact human cancer cells (human) (UniProt Q00987); assay: cell-based ELISA, 5 µg/mL; A2085, MCF-7, MIAPaCa-2, HeLa, OVCA-4, OVCAR-3 cells
[13] = molecular target: MDM2 on the plasma membrane of intact mouse cancer cells (mouse) (UniProt P23804); assay: flow cytometry on cells of excised M109 tumors
[14] = molecular target: MDM2 on the plasma membrane of intact mouse cancer cells (mouse) (UniProt P23804); assay: cell-based ELISA and flow cytometry on live LL/2 cells

Row | binding [1] | binding [2] | binding [3] | binding [4] | binding [5] | binding [6] | binding [7] | binding [8] | binding [9] | binding [10] | binding [11] | binding [12] | binding [13] | binding [14] | Binder
1 | binds | binds | binds | binds | binds | binds | binds | binds | binds | binds | binds | binds | – | – | chimeric monoclonal antibody NMC-C303 (antibody, human IgG1, kappa, V domains shown) VH: QVQLQQPGAELVKPGASVKLSCKASGYTFTSYYMYWVKQRPGQGLEWIGGINPRNGGTNFNEKFKNKATLTADKSSTTAYMQLSSLTSEDSAVYYCTRSGYYAMDYWGQGTSVTVSS VL: DIQMTQTTSSLSASLGDRVTISCRASQDISNFLNWYQQKPDGTVKLLIYYTSRLHSGVPSRFSGSGSGTDYSLTISNLEQEDIATYFCQQGNTLPRTFGGGTKLEIKR
2 | binds | binds | binds | binds | binds | – | – | binds | binds | binds | binds | binds | binds | binds | humanized monoclonal antibody NMC-H103 (VH4/VK3) (antibody, V domains shown) VH: EVQLVESGGGLVQPGPSLRLSCTTSGFTFTHYYMSWVRQAPGKGLEWLGFIRNKAKGYTAEYSASVKGRFTISRDNSKSTLYLQMNSLRAEDTAVYYCARDIGDNWGQGTLVTVSS VL: DIVMTQTPLSSPVTLGQPASISCRSSKNLLHSNGITYLYWYLQKPGQSPQLLISRVSNLASGVPDRFSGSESGTDFTLKISRVEAEDVGVYFCAQLLELPYTFGGGTKVEIK
